From paper PMC7755189
For at least one entry, the source does not settle the construct or the ends of the probe. The comparison behind a weaker result is the experiment's own reference, which may not be listed here.

The chains behind the UniProt entries cited, without tags or fusion partners.
UniProt P49591, whole entry S101D/S241D: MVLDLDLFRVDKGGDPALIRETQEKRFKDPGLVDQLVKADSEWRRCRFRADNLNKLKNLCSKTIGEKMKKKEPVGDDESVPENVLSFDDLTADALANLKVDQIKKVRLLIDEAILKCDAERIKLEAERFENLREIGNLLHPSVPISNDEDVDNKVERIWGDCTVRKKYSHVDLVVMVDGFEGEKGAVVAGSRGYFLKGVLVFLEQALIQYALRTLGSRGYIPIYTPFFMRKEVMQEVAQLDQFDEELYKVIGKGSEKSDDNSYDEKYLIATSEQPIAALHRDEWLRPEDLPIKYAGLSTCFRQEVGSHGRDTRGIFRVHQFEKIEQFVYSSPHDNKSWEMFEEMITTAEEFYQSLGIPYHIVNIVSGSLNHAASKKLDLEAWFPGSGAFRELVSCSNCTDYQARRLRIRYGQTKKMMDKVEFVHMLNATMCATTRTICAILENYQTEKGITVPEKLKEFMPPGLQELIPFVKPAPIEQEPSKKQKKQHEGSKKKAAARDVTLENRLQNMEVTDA

Biological target: SerRS DD S101D,S241D (Homo sapiens) (UniProt P49591)
Assay: EMSA
Details: strongly attenuated relative to WT; EMSA: 20 mM Tris-HCl pH 8.0, 60 mM KCl, 5 mM MgCl2, 0.1 mg/mL BSA, 10 ng/uL poly(dG-dC), 1 mM DTT, 30 min, room temperature; 0.08 pmol labeled DNA; 5% native PAGE; recombinant protein; protein details: C-terminal His6; label: 5'-32P

GGCGGGGCGGAGCCATGCGCCCCCCCC (double strand) [VEGFA promoter SerRS binding site 27 bp]
binding result: binds more weakly
